Marks after values point to notes of the source that are not given here.
Tested on: α2δ-1-NMDAR interaction
Assay: Luminescence resonance energy transfer (LRET) in HEK293 cells
Format: binding, rat
Details: with gabapentin
[1] = GluN1* + GluN2A + YFP-α2δ-1 mutant
[2] = GluN1 + GluN2A* + YFP-α2δ-1 mutant

## NCC1(CC(=O)O)CCCCC1 [gabapentin]
GluN1* + GluN2A + YFP-α2δ-1
  Distance: >95 ^# Å
  Donor only lifetime: 1,779 ± 1 μs
  Donor-acceptor lifetime: no LRET
[1]
  Distance: 57.9 ± 0.9 Å
  Donor only lifetime: 1,779 ± 1 μs
  Donor-acceptor lifetime: 1,344 ± 38 μs
GluN1 + GluN2A* + YFP-α2δ-1
  Distance: >95 ^# Å
  Donor only lifetime: 1,770 ± 1 μs
  Donor-acceptor lifetime: no LRET
[2]
  Distance: 60.4 ± 0.7 Å
  Donor only lifetime: 1,770 ± 1 μs
  Donor-acceptor lifetime: 1,409 ± 16 μs

Reference: patent US11787839B2, “Targeting α2δ-1-bound glutamate receptors for treating diseases and disorders” (Board of Regents, The University of Texas System, priority 2017, dated 2023)
